Results taken from the supplement of paper PMC6078165.
± gives the standard deviation of the averaged measurements. The reference is the same well before dosing, and untreated signal decays as well.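 Labels refer to human fibroblasts, largely primary: uterine (C12385, HUF), lung (H6013), bone (Hs27A), adrenal (HADF), skin (WS1), plus mammary HMF and breast cancer-associated Hs343T. Cancer lines are basal-like or mesenchymal-like triple-negative breast cancer. The paper counts as hits responses shifting over 3x the replicate standard deviation. The tissue of the other fibroblasts is not given here.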

System: MDAMB436
Experiment: relative JC-1 red fluorescence (viability) vs pre-drug, coculture with fibroblast (fraction); higher = more viable cancer cells
Conditions: 10 µM
Experimental: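 JC-1 labelled TNBC cells cocultured 1:1 (1,500 cells each) with CellTrace Violet stained primary or stromal fibroblasts in 384-well plates in FluoroBrite medium, treated with one of 42 anticancer drugs at 0.1, 1, 10 or 100 uM. JC-1 red fluorescence (mitochondrial integrity in cancer cells only) was read by plate reader every 8 h for 72 h. Values are normalised to each well's pre-drug value. The stock of one drug was tenfold lower, so its dose labels may be too high.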

O=c1[nH]cc(F)c(=O)[nH]1 [Fluorouracil]
relative JC-1 red fluorescence
Conditions | 8 h | 16 h | 24 h | 32 h | 40 h | 48 h | 56 h | 64 h | 72 h
coculture fibroblast: C12385 | 0.821 ± 0.015 | 0.732 ± 0.019 | 0.7108 ± 0.0026 | 0.64 ± 0.017 | 0.599 ± 0.026 | 0.574 ± 0.029 | 0.554 ± 0.027 | 0.532 ± 0.037 | 0.529 ± 0.045
coculture fibroblast: H6013 | 0.835 ± 0.018 | 0.748 ± 0.039 | 0.732 ± 0.048 | 0.731 ± 0.045 | 0.739 ± 0.039 | 0.761 ± 0.021 | 0.738 ± 0.026 | 0.73 ± 0.03 | 0.687 ± 0.025
coculture fibroblast: H6019 | 0.762 ± 0.0063 | 0.645 ± 0.013 | 0.644 ± 0.031 | 0.584 ± 0.046 | 0.559 ± 0.057 | 0.55 ± 0.07 | 0.528 ± 0.064 | 0.518 ± 0.077 | 0.511 ± 0.073
coculture fibroblast: H6076 | 0.723 ± 0.038 | 0.59 ± 0.056 | 0.5325 ± 0.00063 | 0.501 ± 0.013 | 0.494 ± 0.023 | 0.484 ± 0.027 | 0.498 ± 0.036 | 0.511 ± 0.032 | 0.514 ± 0.047
coculture fibroblast: H6231 | 0.7131 ± 0.0056 | 0.634 ± 0.017 | 0.554 ± 0.023 | 0.521 ± 0.0079 | 0.495 ± 0.014 | 0.475 ± 0.019 | 0.454 ± 0.025 | 0.444 ± 0.03 | 0.426 ± 0.026
coculture fibroblast: HADF | 0.883 ± 0.044 | 0.823 ± 0.06 | 0.78 ± 0.057 | 0.752 ± 0.07 | 0.728 ± 0.095 | 0.739 ± 0.1 | 0.695 ± 0.12 | 0.678 ± 0.12 | 0.64 ± 0.12
coculture fibroblast: HCFa | 0.793 ± 0.016 | 0.6898 ± 0.0053 | 0.656 ± 0.011 | 0.628 ± 0.027 | 0.595 ± 0.036 | 0.6 ± 0.044 | 0.54 ± 0.053 | 0.53 ± 0.061 | 0.479 ± 0.069
coculture fibroblast: HCPF | 0.7581 ± 0.0052 | 0.654 ± 0.012 | 0.54 ± 0.018 | 0.499 ± 0.014 | 0.466 ± 0.014 | 0.428 ± 0.0065 | 0.396 ± 0.016 | 0.38 ± 0.016 | 0.364 ± 0.0085
coculture fibroblast: HHSteC | 0.868 ± 0.019 | 0.787 ± 0.044 | 0.765 ± 0.059 | 0.733 ± 0.07 | 0.707 ± 0.057 | 0.701 ± 0.041 | 0.638 ± 0.022 | 0.613 ± 0.0063 | 0.5603 ± 0.0042
coculture fibroblast: HMF | 0.76338 ± 0.00017 | 0.658 ± 0.022 | 0.549 ± 0.034 | 0.519 ± 0.042 | 0.497 ± 0.054 | 0.468 ± 0.069 | 0.464 ± 0.071 | 0.454 ± 0.071 | 0.45 ± 0.073
coculture fibroblast: HPFa | 0.894 ± 0.022 | 0.871 ± 0.11 | 0.829 ± 0.1 | 0.803 ± 0.13 | 0.801 ± 0.15 | 0.83 ± 0.17 | 0.766 ± 0.16 | 0.751 ± 0.18 | 0.702 ± 0.16
coculture fibroblast: HUF | 0.851 ± 0.013 | 0.755 ± 0.027 | 0.729 ± 0.047 | 0.652 ± 0.04 | 0.603 ± 0.046 | 0.575 ± 0.039 | 0.552 ± 0.048 | 0.542 ± 0.049 | 0.538 ± 0.057
coculture fibroblast: Hs5 | 0.781 ± 0.016 | 0.683 ± 0.072 | 0.587 ± 0.025 | 0.535 ± 0.025 | 0.51 ± 0.021 | 0.476 ± 0.017 | 0.483 ± 0.014 | 0.456 ± 0.007 | 0.4518 ± 0.0023
coculture fibroblast: Hs27A | 0.826 ± 0.032 | 0.757 ± 0.056 | 0.715 ± 0.057 | 0.697 ± 0.05 | 0.669 ± 0.056 | 0.706 ± 0.043 | 0.642 ± 0.046 | 0.644 ± 0.035 | 0.59 ± 0.038
coculture fibroblast: Hs343T | 0.709 ± 0.011 | 0.578 ± 0.025 | 0.53 ± 0.0091 | 0.488 ± 0.01 | 0.469 ± 0.018 | 0.443 ± 0.015 | 0.427 ± 0.017 | 0.416 ± 0.012 | 0.421 ± 0.013
coculture fibroblast: WS1 | 0.805 ± 0.016 | 0.68 ± 0.025 | 0.637 ± 0.0071 | 0.555 ± 0.0073 | 0.511 ± 0.015 | 0.485 ± 0.015 | 0.461 ± 0.023 | 0.44 ± 0.027 | 0.427 ± 0.035
